Laboratory results published in paper PMC11091118.
Results are given in words; binding and its absence hold for the method and conditions named. In cells and extracts the contact can be indirect. Some results given as binding are weak or reduced against the parent protein; the word gives no strength.

The chains behind the UniProt entries cited, without tags or fusion partners.
UniProt P78527: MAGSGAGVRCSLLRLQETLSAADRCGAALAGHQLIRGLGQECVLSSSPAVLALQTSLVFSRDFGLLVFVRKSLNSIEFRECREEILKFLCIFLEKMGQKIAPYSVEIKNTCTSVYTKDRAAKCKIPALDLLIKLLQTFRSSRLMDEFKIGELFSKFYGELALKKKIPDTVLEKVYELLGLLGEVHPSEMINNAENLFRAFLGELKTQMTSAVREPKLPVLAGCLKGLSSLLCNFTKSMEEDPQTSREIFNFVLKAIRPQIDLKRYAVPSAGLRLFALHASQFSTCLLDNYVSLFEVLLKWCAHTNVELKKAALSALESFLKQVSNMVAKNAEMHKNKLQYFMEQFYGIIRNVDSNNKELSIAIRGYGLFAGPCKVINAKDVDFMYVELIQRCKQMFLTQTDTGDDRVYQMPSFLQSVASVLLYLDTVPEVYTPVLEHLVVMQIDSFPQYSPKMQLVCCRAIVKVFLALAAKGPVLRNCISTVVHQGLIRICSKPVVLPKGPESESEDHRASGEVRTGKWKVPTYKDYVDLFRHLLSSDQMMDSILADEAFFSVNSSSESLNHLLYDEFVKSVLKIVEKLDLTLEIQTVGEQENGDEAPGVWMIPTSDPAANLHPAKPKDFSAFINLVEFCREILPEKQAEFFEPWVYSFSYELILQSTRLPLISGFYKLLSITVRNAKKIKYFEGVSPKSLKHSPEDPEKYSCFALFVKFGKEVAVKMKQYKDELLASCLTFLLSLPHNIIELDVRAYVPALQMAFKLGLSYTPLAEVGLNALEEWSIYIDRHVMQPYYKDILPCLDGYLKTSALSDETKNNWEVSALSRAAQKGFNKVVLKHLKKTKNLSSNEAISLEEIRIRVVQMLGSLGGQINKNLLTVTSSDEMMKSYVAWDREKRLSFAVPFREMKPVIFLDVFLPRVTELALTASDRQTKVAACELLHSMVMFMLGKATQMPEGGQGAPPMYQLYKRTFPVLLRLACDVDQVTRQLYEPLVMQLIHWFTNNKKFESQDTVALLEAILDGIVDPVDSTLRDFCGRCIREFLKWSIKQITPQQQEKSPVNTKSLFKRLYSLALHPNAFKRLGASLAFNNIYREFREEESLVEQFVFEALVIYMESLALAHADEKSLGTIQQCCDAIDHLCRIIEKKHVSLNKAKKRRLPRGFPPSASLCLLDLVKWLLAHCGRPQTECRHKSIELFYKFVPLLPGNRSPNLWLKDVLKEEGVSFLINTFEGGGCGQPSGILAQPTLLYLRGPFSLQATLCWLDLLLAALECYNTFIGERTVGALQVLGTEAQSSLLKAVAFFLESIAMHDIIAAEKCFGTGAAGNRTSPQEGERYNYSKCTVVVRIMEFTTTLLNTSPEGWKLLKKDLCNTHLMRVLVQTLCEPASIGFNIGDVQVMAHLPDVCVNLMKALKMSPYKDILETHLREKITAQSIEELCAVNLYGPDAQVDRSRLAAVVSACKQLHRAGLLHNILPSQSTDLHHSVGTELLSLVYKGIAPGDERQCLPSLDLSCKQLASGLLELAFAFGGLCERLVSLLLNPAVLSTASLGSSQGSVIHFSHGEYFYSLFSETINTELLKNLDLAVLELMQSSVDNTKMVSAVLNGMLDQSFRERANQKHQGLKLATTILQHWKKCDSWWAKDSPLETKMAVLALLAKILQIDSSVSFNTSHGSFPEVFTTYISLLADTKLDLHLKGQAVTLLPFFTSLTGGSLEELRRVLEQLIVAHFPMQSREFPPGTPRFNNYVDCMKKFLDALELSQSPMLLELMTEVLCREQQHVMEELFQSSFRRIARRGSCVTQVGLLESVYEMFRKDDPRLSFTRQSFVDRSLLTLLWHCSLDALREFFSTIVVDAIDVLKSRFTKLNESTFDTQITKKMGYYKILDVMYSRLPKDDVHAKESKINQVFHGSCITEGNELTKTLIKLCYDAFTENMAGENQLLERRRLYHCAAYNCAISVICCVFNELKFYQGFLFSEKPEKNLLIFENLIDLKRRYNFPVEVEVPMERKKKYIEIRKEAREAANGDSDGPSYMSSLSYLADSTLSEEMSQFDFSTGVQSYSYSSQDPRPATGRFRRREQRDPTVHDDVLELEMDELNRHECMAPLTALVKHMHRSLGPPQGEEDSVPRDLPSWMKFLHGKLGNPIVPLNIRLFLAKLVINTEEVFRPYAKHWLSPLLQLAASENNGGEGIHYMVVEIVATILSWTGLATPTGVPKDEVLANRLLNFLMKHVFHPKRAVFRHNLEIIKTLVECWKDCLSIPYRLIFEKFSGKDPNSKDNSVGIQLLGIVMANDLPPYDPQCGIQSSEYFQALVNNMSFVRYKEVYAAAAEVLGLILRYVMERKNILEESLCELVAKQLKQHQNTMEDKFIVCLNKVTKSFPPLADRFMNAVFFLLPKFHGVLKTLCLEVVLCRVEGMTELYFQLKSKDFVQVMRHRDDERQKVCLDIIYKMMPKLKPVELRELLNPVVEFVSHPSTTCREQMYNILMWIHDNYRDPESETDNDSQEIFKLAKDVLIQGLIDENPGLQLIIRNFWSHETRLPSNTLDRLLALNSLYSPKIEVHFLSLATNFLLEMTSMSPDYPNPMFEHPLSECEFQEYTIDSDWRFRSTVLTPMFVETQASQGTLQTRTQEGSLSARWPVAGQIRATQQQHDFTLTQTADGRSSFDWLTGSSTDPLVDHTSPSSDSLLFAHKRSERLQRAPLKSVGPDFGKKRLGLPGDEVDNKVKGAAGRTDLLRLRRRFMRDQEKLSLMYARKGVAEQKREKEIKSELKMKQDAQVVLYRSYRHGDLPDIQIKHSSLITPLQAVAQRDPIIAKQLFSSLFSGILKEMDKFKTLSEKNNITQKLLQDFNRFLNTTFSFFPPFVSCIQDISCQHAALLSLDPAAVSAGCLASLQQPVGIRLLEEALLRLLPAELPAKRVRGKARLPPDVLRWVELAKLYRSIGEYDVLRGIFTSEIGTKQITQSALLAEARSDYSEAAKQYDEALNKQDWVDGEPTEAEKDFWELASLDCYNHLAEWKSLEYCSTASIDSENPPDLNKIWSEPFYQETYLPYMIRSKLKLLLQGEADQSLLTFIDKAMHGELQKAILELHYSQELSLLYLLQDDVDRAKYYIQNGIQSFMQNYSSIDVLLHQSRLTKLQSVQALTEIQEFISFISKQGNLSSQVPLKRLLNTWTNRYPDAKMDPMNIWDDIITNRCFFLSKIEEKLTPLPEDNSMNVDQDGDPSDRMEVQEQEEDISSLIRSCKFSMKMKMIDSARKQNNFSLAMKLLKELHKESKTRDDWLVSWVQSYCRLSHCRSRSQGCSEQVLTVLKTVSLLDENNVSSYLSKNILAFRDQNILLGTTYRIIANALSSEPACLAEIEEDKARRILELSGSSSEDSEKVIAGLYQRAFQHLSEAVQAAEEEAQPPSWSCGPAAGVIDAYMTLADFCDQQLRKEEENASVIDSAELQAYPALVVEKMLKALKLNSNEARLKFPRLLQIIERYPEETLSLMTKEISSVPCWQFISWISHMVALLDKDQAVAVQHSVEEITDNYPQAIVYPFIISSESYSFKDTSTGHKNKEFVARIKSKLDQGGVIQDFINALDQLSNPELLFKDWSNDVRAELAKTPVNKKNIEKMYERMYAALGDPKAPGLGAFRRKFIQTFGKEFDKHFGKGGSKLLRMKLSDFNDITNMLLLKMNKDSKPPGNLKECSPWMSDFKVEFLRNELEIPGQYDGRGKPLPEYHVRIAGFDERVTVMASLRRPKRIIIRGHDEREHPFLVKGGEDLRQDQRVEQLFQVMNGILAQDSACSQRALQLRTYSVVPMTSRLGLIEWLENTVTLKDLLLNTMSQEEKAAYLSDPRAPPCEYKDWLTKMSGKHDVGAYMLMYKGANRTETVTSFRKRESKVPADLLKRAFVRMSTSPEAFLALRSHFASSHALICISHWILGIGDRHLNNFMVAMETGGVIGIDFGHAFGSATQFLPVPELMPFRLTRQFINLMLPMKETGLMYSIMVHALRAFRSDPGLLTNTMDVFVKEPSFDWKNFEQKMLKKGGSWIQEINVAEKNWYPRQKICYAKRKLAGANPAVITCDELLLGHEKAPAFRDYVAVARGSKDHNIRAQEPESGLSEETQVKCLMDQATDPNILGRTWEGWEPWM
UniProt Q92830: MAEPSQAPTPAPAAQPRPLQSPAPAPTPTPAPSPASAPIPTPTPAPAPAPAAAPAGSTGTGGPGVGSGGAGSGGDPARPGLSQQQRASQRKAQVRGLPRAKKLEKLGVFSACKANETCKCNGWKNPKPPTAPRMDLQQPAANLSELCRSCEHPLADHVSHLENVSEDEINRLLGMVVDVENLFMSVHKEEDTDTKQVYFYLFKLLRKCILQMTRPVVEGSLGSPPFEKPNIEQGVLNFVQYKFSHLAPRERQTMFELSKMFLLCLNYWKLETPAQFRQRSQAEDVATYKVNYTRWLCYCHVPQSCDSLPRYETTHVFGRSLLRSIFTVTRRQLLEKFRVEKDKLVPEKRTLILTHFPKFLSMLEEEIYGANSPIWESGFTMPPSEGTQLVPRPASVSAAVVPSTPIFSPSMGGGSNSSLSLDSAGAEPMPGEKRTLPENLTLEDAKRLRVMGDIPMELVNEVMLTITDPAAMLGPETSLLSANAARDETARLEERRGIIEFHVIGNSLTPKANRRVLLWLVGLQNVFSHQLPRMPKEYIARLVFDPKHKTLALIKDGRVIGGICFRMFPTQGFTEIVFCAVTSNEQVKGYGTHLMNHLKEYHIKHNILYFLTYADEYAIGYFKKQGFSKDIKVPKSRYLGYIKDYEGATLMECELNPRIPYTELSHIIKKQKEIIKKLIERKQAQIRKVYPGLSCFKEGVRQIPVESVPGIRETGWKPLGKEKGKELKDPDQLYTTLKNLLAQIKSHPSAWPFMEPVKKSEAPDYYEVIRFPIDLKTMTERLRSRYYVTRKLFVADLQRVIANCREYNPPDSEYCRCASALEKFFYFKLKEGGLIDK
UniProt O15379: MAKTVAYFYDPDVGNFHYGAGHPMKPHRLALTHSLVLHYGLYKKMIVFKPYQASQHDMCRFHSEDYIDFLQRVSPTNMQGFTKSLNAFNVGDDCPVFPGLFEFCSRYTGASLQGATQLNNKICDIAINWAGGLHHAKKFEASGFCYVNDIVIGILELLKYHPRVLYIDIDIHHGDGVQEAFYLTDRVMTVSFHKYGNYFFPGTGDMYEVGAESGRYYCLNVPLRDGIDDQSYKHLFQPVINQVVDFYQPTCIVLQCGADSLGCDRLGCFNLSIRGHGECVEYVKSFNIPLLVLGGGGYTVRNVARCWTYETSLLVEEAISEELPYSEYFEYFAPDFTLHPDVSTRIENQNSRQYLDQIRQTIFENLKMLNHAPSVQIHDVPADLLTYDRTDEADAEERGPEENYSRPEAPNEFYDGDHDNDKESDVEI

Target: DNA-PK catalytic subunit (DNA-PKcs), endogenous (human (endogenous in HeLa)) (UniProt P78527)
Assay: co-IP; HeLa cells treated with IR or not; co-IP of endogenous proteins with indicated antibodies; NETN buffer

binding	Substance
binds	General control nondepressible 5 (GCN5), endogenous (from UniProt Q92830 1-837) (enzyme)
binds	HDAC3, endogenous (from UniProt O15379 1-428) (enzyme)
